Results taken from US8628864B2, “Indolo[3,2,1-jk]carbazole compound and organic light-emitting device containing the same” (Canon Kabushiki Kaisha, priority 2010, dated 2014).
Some of these results come from one statement about several compounds together.

Key:
[1] = Ionization potential of evaporated thin film, photoelectron spectrometer AC-3; assay type: physicochemical; settings: difference versus Examples 1 to 3
Description: The ionization potential of the evaporated thin film used in the measurement of the energy gap described above was measured with a photoelectron spectrometer AC-3 (manufactured by Riken Keiki Co., Ltd.). The ionization potential of the exemplary compound C-1 was 6.01 eV.

[2] = Solubility: amount of chlorobenzene required to dissolve 10 mg of compound; assay type: physicochemical; settings: relative to C-1
Description: The amount of chlorobenzene required to dissolve 10 mg of the exemplary compound C-1 was determined. As a result, the amount of chlorobenzene required to dissolve 10 mg of the exemplary compound C-1 was 1 ml or less.

Row | Compound | HOMO level lower than those of Examples 1 to 3 [1] [eV] | times lower solubility than the exemplary compound C-1 [2] [times]
1 | c1ccc2c(c1)c1cc(-c3cc(-c4cc5c6ccccc6n6c7ccccc7c(c4)c56)cc(-c4cc5c6ccccc6n6c7ccccc7c(c4)c56)c3)cc3c4ccccc4n2c13 [FH-01] | ≥ 0.2 | 
2 | c1ccc2c(c1)c1cc(-c3ccc(-c4cc5c6ccccc6n6c7ccccc7c(c4)c56)cc3)cc3c4ccccc4n2c13 [FH-02] | ≥ 0.2 | ≥ 10
